Data on eleven compounds can be found in the supplement of paper PMC11348887.

Each structure is given as a SMILES string. Structures can show the parent of a compound that is named as a salt. The list shows a part of the results. Small differences around the control level are noise.

Conditions in all cases: 5 µM; treatment: days 7-14 after plating, readout day 21
For assay [1], the system named is hPSC-derived cortical neurons (WA09). Kind of assay: nucleus area z-score vs screen plate; higher = larger nuclei (more mature).
The test system is the same in assay [2]. Nature of the assay: total neurite length per nucleus (MAP2) z-score; higher = more neurite growth.
Assay [3] shares this test system. Kind of assay: nucleus roundness z-score vs screen plate; higher = rounder nuclei (more mature).
For assay [4] the test system is unchanged. Kind of assay: KCl-induced FOS+/EGR-1+ double-positive nuclei fraction z-score (KCl minus unstimulated); higher = stronger activity-induced IEG response.

With `O=C(Nc1ccccc1)c1ccccc1O` [Salicylanilide], in assay [1], the nucleus area z-score is 0.257. For the same compound, in assay [2], the “total neurite length per nucleus (z-score)” value came to 0.442. In addition, in assay [3], the nucleus roundness z-score worked out at 0.261. Moreover, the “KCl-induced FOS+/EGR-1+ double-positive nuclei fraction z-score” value in assay [4] is 0.053.
For the compound `Cc1ccc(C(=O)NCCCCCC(=O)Nc2ccccc2N)cc1`, the nucleus area z-score in assay [1] was 0.169. Further, the “total neurite length per nucleus (z-score)” value in assay [2] worked out at 0.656. In assay [3], this compound gave a nucleus roundness z-score of 0.63. In addition, in assay [4], the “KCl-induced FOS+/EGR-1+ double-positive nuclei fraction z-score” value is -0.122.
As to `COc1ccc2c(Oc3ccc(NC(=O)c4c(C)n(CC(C)(C)O)n(-c5ccccc5)c4=O)nc3)ccnc2c1`, the nucleus area z-score in assay [1] amounted to 2.19. Further, the “total neurite length per nucleus (z-score)” value in assay [2] was 0.377. The same compound registered a nucleus roundness z-score in assay [3] of -0.841. Further, in assay [4], the “KCl-induced FOS+/EGR-1+ double-positive nuclei fraction z-score” value amounted to 0.518.
In assay [1], `CC(C)CC(CC(=O)NO)C(=O)N[C@@H](Cc1ccc2ccccc2c1)C(=O)N[C@@H](C)C(=O)NCCN` (some centres undefined) yielded a nucleus area z-score of 0.192. For the same compound, the “total neurite length per nucleus (z-score)” value in assay [2] came to 0.116. This compound also displayed a nucleus roundness z-score in assay [3] of 0.418. Also, the “KCl-induced FOS+/EGR-1+ double-positive nuclei fraction z-score” value in assay [4] turned out to be 1.14.
For `Oc1c(F)cc(-c2cnccc2-c2ccc(N3CCOCC3)cc2)cc1F`, in that order: 1.69, 0.00576, -0.264 and -0.0129.
As for `O=C(O)c1ccc(CN2CCC(CN[C@@H]3C[C@H]3c3ccccc3)CC2)cc1`, the nucleus area z-score in assay [1] is 2.38. Moreover, the “total neurite length per nucleus (z-score)” value in assay [2] was 2.05. In assay [3], this compound registered a nucleus roundness z-score of 0.452. Besides, the “KCl-induced FOS+/EGR-1+ double-positive nuclei fraction z-score” value in assay [4] is 3.41.
Compound `CN(C)c1ccc2c(c1)Sc1cc(N(C)C)ccc1N2` [TRx0237 (LMTX) mesylate] showed a nucleus area z-score in assay [1] of -5.1. In assay [2], the “total neurite length per nucleus (z-score)” value was 3.39. In assay [3], this compound returned a nucleus roundness z-score of -0.202. The “KCl-induced FOS+/EGR-1+ double-positive nuclei fraction z-score” value in assay [4] was 1.56.
On to `O=C(NC1CC1)c1cc(-c2cccs2)on1` [Isoxazole 9 (ISX-9)], for which the nucleus area z-score in assay [1] stood at 0.265. For the same compound, the “total neurite length per nucleus (z-score)” value in assay [2] came out at 2.12. In assay [3], this compound showed a nucleus roundness z-score of 1.69. In addition, in assay [4], the “KCl-induced FOS+/EGR-1+ double-positive nuclei fraction z-score” value was 3.
Compound `Cc1ccc(S(=O)(=O)c2ccc([N+](=O)[O-])o2)cc1` yielded a nucleus area z-score in assay [1] of -4.73. Also, the “total neurite length per nucleus (z-score)” value in assay [2] is -0.508. In assay [3], this compound yielded a nucleus roundness z-score of -1.13. Further, the “KCl-induced FOS+/EGR-1+ double-positive nuclei fraction z-score” value in assay [4] was determined as 1.3.
The compound `CN(C)CCNC(=O)c1cccn2c(=O)c3cc4ccccc4cc3nc12` had a nucleus area z-score in assay [1] of -3.69. In addition, in assay [2], the “total neurite length per nucleus (z-score)” value was -0.213. In assay [3], this compound showed a nucleus roundness z-score of -0.302. Further, in assay [4], the “KCl-induced FOS+/EGR-1+ double-positive nuclei fraction z-score” value is 5.62.
Compound `Cc1cc(Nc2cc(CN3CCOCC3)c3nc(C)c(Cc4ccc(Cl)cc4F)n3n2)n[nH]1` came in with a nucleus area z-score in assay [1] of -0.769. Further, in assay [2], the “total neurite length per nucleus (z-score)” value was 0.864. The compound further showed a nucleus roundness z-score in assay [3] of 0.229. Also, in assay [4], the “KCl-induced FOS+/EGR-1+ double-positive nuclei fraction z-score” value is -0.425.
